Our source for the binding values is paper PMC5539145.

Amino acid sequences for entries named in this document (tags omitted). Residues count along the entry.
UniProt P08138, residues 330-427: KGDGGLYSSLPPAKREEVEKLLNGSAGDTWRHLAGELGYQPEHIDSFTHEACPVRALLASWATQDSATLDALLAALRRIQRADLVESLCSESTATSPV

For the assay, the target named is p75 neurotrophin receptor death domain (p75NTR DD) (UniProt P08138). The assay is described as follows: NMR titration; unlabeled TRADD DD added to 15N-labelled p75NTR DD monomer; 2D 1H-15N HSQC; 28 °C in water; with dithiothreitol, without phosphate ions; TRADD DD ~0.3 mM, molar ratio TRADD DD to p75NTR DD ~1:2; both purified.

Results are given in words; binding and its absence hold for the method and conditions named. Some entries that bind do so weakly or less than the wild type.

B1: TRADD DD (199-312), C-terminal death domain of the TNFR1-associated death domain protein (domain or fragment, UniProt Q15628 199-312)
chain: AQTFLFQGQPVVNRPLSLKDQQTFARSVGLKWRKVGRSLQRGCRALRDPALDSLAYEYEREGLYEQAFQLLRRFVQAEGRRATLQRLVEALEENELTSLAEDLLGLTDPNGGLA
On to B1, for which the binding result is “binds weakly”.
